Assay results as given in paper doi:10.1101/2021.12.31.471205.
Construct, isoform or probe ends are uncertain for at least one entry. Results from cells or extracts need not show a direct contact.

Amino acid sequences for entries named in this document (tags omitted). A change or cut given only in a name is not applied to a line headed by its entry.
UniProt P55771: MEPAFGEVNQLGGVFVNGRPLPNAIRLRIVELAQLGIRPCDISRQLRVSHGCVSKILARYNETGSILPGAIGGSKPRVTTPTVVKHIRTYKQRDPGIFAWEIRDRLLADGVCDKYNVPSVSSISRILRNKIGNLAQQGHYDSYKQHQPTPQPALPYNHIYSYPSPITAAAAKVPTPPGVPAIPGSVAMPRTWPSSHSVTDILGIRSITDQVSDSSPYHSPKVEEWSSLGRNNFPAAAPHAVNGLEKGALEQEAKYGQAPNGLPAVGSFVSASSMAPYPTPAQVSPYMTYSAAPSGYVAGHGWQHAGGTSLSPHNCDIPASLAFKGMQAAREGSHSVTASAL

Biological target: PAX9 wild type (Homo sapiens) (UniProt P55771)
Assay: EMSA with anti-c-Myc supershift
Details: 6 ug nuclear lysate; protein in an extract; residues 1-341

Q: Does “CACCGCACGATTAGCACCGTTCCGCTCAGGCTGTCCCCC / CACGGGACAGCCTGAGCGGAACGGTGCTAATCGTGCGGT [e5 probe (39-mer)]” bind?
A: Result: binds
